# Screening data, single-dose tests

The chains behind the UniProt entries cited, without tags or fusion partners.
UniProt P9WNZ1, whole entry: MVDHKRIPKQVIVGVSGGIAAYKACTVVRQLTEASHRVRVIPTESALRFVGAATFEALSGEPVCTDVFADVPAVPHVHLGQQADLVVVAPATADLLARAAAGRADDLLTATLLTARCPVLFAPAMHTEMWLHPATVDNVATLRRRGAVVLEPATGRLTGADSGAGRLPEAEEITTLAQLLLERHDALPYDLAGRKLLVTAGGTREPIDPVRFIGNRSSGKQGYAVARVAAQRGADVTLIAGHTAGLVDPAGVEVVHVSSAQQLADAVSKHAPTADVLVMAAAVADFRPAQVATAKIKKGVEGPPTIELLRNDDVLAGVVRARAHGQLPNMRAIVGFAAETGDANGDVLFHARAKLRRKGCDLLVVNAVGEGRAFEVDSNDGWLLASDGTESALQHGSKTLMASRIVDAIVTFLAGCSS

From ChEMBL document CHEMBL3988442, “University of Dundee, Small-Polar-MMV Screening Library” (2021).

Results are given as percent effect. The record does not define 0% and 100%; most values in the screen are far below 50% and negative numbers occur (in some assays of this library far below -100). This is an unselected part of the compounds tested. Two or more numbers in one place are separate tests of the same structure; such repeats can differ widely. A dash means the value is not listed here; it may have been measured.

Leishmania in macrophages: 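Cell assay of Leishmania donovani living inside macrophages; the read-out is not stated. Concentration: 30 µM. The record gives no direction; compounds that gave an IC50 in retests scored well above the rest, so higher reads as stronger inhibition. About 69,000 compounds were tested under these conditions; 1.5% (about 1,000) showed 50% or more at least once.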
CoaBC: 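Coenzyme A biosynthesis protein CoaBC, Mycobacterium tuberculosis (UniProt P9WNZ1). Enzyme assay of CoaBC with a phosphate dye (Biomol Green) read at 650 nm. Compounds at 30 µM. Higher reads as stronger inhibition, judged from the few compounds that gave an IC50. Most strong results did not repeat in a second test. Size under these conditions: about 67,000 compounds, about 40 of them at 50% or above in at least one test.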

SMILES	Leishmania in macrophages	CoaBC
Cn1nnc(NCc2ccc(-c3ccc(Cl)cc3)o2)n1	-8.907	-3.928
O=C(O)c1cn(CC2CCCN(c3nc4ccccc4s3)C2)nn1 (stereo not given)	1.144	6.757
O=S(=O)(NC1=NCN(CCc2cccs2)CN1)c1ccc(Cl)cc1	2.849	-4.04
CN(CC(=O)N1CCCC1Cn1cccn1)Cc1ccccc1 (stereo not given)	16.82	0.2625
COc1ccc(CNCC(C)Oc2ccccn2)cc1Br.Cl (stereo not given)	27.28	-
O=C(O)C(F)(F)F.[H][C@@]12CCCO[C@]1([H])[C@@H](OCc1cccnc1)CN2C(=O)c1occc1C	4.734	-
Cc1nc(C)n(CC2CN(Cc3cscn3)CCO2)n1 (stereo not given)	27.29	6.65
CC(C)N1CCC(CC(=O)NCCc2cc(O)ncn2)CC1	-6.898	2.331
COc1cc(N2CCC3(CCCN(C(=O)c4cccnc4)C3)C2)ncn1 (stereo not given)	-	7.19
CC(C)c1nccn1C1CCCN(C(=O)c2ccnc(N(C)C)c2)C1 (stereo not given)	3.234	10
CC1=CCN(S(=O)(=O)c2cccc(C(=O)N3CCCN(C)CC3)c2)CC1	12.21	-13.84
C1CCN(Cc2nnn3c2CN(CC2CC2)CCC3)C1	11.27	-41.61
COc1ccc(Cc2ncc3c(n2)CN(C(=O)C(C)(C)C)C3)cc1	48.6	18.72
CCOc1ccc(C(F)(F)F)cc1NC(=O)NCc1noc(C)n1	6.19	2.662
CN(C)CCNC(=O)c1sc2ccccc2c1C1CCC(CN)CC1.Cl (stereo not given)	63.37	-
[H][C@]12CCC(=O)N(c3ccccc3)[C@@]1([H])CCN2C(=O)c1cc(C)on1	-3.792	-
c1ccc(-c2ncc3c(n2)C2(CCN(c4ncccn4)C2)COC3)cc1 (stereo not given)	-12.78	0.8157
CN(C)CCN1CCN(Cc2nccs2)Cc2cccnc21	-	-7.16
Fc1cccc(CN2CCOC3(COCCN(CC4CC4)C3)C2)c1 (stereo not given)	-	7.654
Cc1nc(Nc2nnc(C)s2)cc(C2CCCN2C2CCCC2)n1 (stereo not given)	1.477	-1.115
Cc1ccc(C(=O)N2CCCN(C)c3ccc(F)cc32)o1	-42.73	3.874
[H][C@@]12CCCO[C@]1([H])[C@H](OCC1CCOCC1)CN2C(=O)c1occc1C	20.89	-
COCCN1C(=O)C[C@@H]2[C@H]1CCN2C(=O)c1ccc[nH]1	-	-0.3699
COc1c(CNCCNC(=O)c2ccc(C)cc2)c(C)nn1C	21.26	3.035
COCC(O)CN(C)C(=O)NCc1ccc(-c2ccn[nH]2)cc1 (stereo not given)	1.397	1.152
c1cc(CCN2CCC(NCc3ccsc3)CC2)ccn1	31.06	-0.2016
CCCN(C(=O)CN1CCn2c(nnc2C2CC2)C1)C1=CCCCC1	6.3 and -3.904	2.29
O=C(NS(=O)(=O)c1cc(Cl)ccc1Cl)c1cccc2c1OCCO2	-1.118	-8.835
O=C(NCCc1cc(N2CCOCC2)nc(NC2CC2)n1)C1CCCO1 (stereo not given)	-23.67	0.2421
CN(C)C(=O)Cc1ccc(NC(=O)NC2CCCC2)cc1	20.35	0.6316
COc1cc(CN(C)C(=O)NCc2nccs2)ccc1SC	29.82	5.04
c1ccc(Cn2cncn2)c(CNCC2CNc3ccnn3C2)c1 (stereo not given)	44.98	17.11
Cc1nonc1CNC(=O)C(C)Oc1ccccc1F (stereo not given)	0	-13.32
Cc1nn(C)c2c(N3CCN(C(=O)c4ccccc4)CC3)ncnc12	8.15	13.59
CN(CC(=O)Nc1cc(C(C)(C)C)n[nH]1)S(C)(=O)=O	-19.26	-2.679
COc1ccccc1CN1CCCCC1c1n[nH]cc1-c1cc(C)no1.Cl (stereo not given)	26.93	-
CNC(=O)C1CN(Cc2cc(C)on2)CCN(C(C)=O)C1 (stereo not given)	16.32	-9.448
CNC(=O)c1sc2ccccc2c1C1CCN(c2nc(C)cc(C)n2)C1 (stereo not given)	32.65	6.748
CN(CC1CCCCO1)S(=O)(=O)c1cccc(C(=O)N2CCOCC2)c1 (stereo not given)	28.38	-4.096
COCCN(CCOC)S(=O)(=O)N(C)Cc1ccncc1	-7.062	10.48
CN(C)Cc1nn(C)c2c1CN(C(=O)c1ccc[nH]1)C2	-	-24.58
Cc1ccc(O)c(C(=O)N2CCC(CNC(=O)OC(C)(C)C)C2)c1 (stereo not given)	8.469	14.53
Cc1cc(C)c(CNC(=O)C(C)Oc2ccccc2C#N)c(=O)[nH]1 (stereo not given)	27.43 and -4.816	2.545
CC(Cn1ccnc1)NCc1nncn1C1CCCCC1 (stereo not given)	18.26	-5.325
Cc1ncsc1CN1C[C@@H](O)[C@](O)(CNC(=O)c2ccccn2)C1	8.331 and 20.77	4.217
O=C(O)C(F)(F)F.[H][C@]12C[C@@H](Cn3cncn3)N(C(C)C)[C@@]1([H])CCN(Cc1ccsc1)C2	41.67	-
Cc1[nH]/c(=N\C(=O)c2csc(NC3CC3)n2)sc1C	70.25	-6.579
Fc1ccc2c(c1)CCC2NCc1ccc(N2CCOCC2)cc1 (stereo not given)	4.822	-16.92
COc1ccc2cc(C3CN(C(=O)CN4CCCC4)CCO3)ccc2c1 (stereo not given)	-1.372	-24.63
CC(=O)N1N=C(c2ccco2)OC1C(=O)NCCc1ccc(F)cc1 (stereo not given)	-15.23	2.427
Cc1ccccc1CN1CCC2(CC1)CN(S(=O)(=O)c1ccccc1)C2.O=C(O)C(F)(F)F	5.598	-
O=C(O)CC(O)(CC(=O)O)C(=O)O.c1cnc2[nH]nc(C3CCN(Cc4ccsc4)CC3)c2c1	-2.97	-
Cc1ccc(C2(O)CCN(C(=O)c3cccc(S(C)(=O)=O)c3)CC2)nc1	24.33	0.6053

Once more, the final 7:

| SMILES | Leishmania in macrophages | CoaBC |
|---|---|---|
| `Cc1[nH]/c(=N\C(=O)c2csc(NC3CC3)n2)sc1C` | 70.25 | -6.579 |
| `Fc1ccc2c(c1)CCC2NCc1ccc(N2CCOCC2)cc1` (stereo not given) | 4.822 | -16.92 |
| `COc1ccc2cc(C3CN(C(=O)CN4CCCC4)CCO3)ccc2c1` (stereo not given) | -1.372 | -24.63 |
| `CC(=O)N1N=C(c2ccco2)OC1C(=O)NCCc1ccc(F)cc1` (stereo not given) | -15.23 | 2.427 |
| `Cc1ccccc1CN1CCC2(CC1)CN(S(=O)(=O)c1ccccc1)C2.O=C(O)C(F)(F)F` | 5.598 | - |
| `O=C(O)CC(O)(CC(=O)O)C(=O)O.c1cnc2[nH]nc(C3CCN(Cc4ccsc4)CC3)c2c1` | -2.97 | - |
| `Cc1ccc(C2(O)CCN(C(=O)c3cccc(S(C)(=O)=O)c3)CC2)nc1` | 24.33 | 0.6053 |